Results taken from paper PMC12733451, “A Novel RANKL/RANK Inhibitor IMB-R38 Inhibits Osteoporosis Through Regulating Bone Metabolism” (International Journal of Molecular Sciences, 2025).
Changes are numbered by the printed parent chain. Results are given in words; binding and its absence hold for the method and conditions named. Some binding calls cover weakened binding; strength is not graded here. Sequences can lack the tags named with a protein.

Protein sequences, listed by entry. Tags and fused reporters are not part of them. Residues count along the entry.
UniProt O35235, residues 143-316: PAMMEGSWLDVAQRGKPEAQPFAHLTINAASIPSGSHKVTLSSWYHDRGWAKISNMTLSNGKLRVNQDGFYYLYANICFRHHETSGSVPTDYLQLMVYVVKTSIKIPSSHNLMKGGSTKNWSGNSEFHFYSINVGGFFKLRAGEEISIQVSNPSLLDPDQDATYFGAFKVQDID

Tests used:
Assay in all cases: two-hybrid; GAL4 system in yeast AH109; AD (pGADT7) and BD (pGBKT7) fusions; growth on SD/-Trp/-Leu/-His/-Ade quadruple-dropout plates or medium, 30 °C, 3-4 days
[1] = biological target: T1, RANK (amino acids 26-211) Asp168 + Lys169 > Ala fused to the GAL4 DNA-binding domain (pBD-RANK-Asp168 + Lys169 > Ala) (UniProt O35305)
T1 sequence: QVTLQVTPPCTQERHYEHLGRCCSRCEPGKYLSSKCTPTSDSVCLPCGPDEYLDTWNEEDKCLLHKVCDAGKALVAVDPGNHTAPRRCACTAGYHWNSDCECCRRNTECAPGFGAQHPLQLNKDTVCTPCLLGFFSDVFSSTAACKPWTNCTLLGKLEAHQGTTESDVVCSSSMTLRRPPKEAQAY

[2] = biological target: T2, RANK (amino acids 26-211) Asp168 > Ala fused to the GAL4 DNA-binding domain (pBD-RANK-Asp168 > Ala) (UniProt O35305)
T2 sequence: T1 sequence with A144K

[3] = biological target: T3, RANK (amino acids 26-211) Lys169 > Ala fused to the GAL4 DNA-binding domain (pBD-RANK-Lys169 > Ala) (UniProt O35305)
T3 sequence: T1 sequence with A143D

- binding [1]: no binding
- binding [2]: no binding
- binding [3]: binds
Substance: RANKL (amino acids 143-317) fused to the GAL4 transcription activation domain (pAD-RANKL) (from UniProt O35235 143-316) (domain or fragment)
